These are yes or no findings as the source states them, for the method shown. Binding seen in cells or lysates may run through a third protein. A yes stands for co-enrichment or nearness to the bait. Other partners may have been found. Sequences can lack the tags named with a protein.

By UniProt entry, the sequences of proteins in these tests, tags left out.
UniProt E9Q616: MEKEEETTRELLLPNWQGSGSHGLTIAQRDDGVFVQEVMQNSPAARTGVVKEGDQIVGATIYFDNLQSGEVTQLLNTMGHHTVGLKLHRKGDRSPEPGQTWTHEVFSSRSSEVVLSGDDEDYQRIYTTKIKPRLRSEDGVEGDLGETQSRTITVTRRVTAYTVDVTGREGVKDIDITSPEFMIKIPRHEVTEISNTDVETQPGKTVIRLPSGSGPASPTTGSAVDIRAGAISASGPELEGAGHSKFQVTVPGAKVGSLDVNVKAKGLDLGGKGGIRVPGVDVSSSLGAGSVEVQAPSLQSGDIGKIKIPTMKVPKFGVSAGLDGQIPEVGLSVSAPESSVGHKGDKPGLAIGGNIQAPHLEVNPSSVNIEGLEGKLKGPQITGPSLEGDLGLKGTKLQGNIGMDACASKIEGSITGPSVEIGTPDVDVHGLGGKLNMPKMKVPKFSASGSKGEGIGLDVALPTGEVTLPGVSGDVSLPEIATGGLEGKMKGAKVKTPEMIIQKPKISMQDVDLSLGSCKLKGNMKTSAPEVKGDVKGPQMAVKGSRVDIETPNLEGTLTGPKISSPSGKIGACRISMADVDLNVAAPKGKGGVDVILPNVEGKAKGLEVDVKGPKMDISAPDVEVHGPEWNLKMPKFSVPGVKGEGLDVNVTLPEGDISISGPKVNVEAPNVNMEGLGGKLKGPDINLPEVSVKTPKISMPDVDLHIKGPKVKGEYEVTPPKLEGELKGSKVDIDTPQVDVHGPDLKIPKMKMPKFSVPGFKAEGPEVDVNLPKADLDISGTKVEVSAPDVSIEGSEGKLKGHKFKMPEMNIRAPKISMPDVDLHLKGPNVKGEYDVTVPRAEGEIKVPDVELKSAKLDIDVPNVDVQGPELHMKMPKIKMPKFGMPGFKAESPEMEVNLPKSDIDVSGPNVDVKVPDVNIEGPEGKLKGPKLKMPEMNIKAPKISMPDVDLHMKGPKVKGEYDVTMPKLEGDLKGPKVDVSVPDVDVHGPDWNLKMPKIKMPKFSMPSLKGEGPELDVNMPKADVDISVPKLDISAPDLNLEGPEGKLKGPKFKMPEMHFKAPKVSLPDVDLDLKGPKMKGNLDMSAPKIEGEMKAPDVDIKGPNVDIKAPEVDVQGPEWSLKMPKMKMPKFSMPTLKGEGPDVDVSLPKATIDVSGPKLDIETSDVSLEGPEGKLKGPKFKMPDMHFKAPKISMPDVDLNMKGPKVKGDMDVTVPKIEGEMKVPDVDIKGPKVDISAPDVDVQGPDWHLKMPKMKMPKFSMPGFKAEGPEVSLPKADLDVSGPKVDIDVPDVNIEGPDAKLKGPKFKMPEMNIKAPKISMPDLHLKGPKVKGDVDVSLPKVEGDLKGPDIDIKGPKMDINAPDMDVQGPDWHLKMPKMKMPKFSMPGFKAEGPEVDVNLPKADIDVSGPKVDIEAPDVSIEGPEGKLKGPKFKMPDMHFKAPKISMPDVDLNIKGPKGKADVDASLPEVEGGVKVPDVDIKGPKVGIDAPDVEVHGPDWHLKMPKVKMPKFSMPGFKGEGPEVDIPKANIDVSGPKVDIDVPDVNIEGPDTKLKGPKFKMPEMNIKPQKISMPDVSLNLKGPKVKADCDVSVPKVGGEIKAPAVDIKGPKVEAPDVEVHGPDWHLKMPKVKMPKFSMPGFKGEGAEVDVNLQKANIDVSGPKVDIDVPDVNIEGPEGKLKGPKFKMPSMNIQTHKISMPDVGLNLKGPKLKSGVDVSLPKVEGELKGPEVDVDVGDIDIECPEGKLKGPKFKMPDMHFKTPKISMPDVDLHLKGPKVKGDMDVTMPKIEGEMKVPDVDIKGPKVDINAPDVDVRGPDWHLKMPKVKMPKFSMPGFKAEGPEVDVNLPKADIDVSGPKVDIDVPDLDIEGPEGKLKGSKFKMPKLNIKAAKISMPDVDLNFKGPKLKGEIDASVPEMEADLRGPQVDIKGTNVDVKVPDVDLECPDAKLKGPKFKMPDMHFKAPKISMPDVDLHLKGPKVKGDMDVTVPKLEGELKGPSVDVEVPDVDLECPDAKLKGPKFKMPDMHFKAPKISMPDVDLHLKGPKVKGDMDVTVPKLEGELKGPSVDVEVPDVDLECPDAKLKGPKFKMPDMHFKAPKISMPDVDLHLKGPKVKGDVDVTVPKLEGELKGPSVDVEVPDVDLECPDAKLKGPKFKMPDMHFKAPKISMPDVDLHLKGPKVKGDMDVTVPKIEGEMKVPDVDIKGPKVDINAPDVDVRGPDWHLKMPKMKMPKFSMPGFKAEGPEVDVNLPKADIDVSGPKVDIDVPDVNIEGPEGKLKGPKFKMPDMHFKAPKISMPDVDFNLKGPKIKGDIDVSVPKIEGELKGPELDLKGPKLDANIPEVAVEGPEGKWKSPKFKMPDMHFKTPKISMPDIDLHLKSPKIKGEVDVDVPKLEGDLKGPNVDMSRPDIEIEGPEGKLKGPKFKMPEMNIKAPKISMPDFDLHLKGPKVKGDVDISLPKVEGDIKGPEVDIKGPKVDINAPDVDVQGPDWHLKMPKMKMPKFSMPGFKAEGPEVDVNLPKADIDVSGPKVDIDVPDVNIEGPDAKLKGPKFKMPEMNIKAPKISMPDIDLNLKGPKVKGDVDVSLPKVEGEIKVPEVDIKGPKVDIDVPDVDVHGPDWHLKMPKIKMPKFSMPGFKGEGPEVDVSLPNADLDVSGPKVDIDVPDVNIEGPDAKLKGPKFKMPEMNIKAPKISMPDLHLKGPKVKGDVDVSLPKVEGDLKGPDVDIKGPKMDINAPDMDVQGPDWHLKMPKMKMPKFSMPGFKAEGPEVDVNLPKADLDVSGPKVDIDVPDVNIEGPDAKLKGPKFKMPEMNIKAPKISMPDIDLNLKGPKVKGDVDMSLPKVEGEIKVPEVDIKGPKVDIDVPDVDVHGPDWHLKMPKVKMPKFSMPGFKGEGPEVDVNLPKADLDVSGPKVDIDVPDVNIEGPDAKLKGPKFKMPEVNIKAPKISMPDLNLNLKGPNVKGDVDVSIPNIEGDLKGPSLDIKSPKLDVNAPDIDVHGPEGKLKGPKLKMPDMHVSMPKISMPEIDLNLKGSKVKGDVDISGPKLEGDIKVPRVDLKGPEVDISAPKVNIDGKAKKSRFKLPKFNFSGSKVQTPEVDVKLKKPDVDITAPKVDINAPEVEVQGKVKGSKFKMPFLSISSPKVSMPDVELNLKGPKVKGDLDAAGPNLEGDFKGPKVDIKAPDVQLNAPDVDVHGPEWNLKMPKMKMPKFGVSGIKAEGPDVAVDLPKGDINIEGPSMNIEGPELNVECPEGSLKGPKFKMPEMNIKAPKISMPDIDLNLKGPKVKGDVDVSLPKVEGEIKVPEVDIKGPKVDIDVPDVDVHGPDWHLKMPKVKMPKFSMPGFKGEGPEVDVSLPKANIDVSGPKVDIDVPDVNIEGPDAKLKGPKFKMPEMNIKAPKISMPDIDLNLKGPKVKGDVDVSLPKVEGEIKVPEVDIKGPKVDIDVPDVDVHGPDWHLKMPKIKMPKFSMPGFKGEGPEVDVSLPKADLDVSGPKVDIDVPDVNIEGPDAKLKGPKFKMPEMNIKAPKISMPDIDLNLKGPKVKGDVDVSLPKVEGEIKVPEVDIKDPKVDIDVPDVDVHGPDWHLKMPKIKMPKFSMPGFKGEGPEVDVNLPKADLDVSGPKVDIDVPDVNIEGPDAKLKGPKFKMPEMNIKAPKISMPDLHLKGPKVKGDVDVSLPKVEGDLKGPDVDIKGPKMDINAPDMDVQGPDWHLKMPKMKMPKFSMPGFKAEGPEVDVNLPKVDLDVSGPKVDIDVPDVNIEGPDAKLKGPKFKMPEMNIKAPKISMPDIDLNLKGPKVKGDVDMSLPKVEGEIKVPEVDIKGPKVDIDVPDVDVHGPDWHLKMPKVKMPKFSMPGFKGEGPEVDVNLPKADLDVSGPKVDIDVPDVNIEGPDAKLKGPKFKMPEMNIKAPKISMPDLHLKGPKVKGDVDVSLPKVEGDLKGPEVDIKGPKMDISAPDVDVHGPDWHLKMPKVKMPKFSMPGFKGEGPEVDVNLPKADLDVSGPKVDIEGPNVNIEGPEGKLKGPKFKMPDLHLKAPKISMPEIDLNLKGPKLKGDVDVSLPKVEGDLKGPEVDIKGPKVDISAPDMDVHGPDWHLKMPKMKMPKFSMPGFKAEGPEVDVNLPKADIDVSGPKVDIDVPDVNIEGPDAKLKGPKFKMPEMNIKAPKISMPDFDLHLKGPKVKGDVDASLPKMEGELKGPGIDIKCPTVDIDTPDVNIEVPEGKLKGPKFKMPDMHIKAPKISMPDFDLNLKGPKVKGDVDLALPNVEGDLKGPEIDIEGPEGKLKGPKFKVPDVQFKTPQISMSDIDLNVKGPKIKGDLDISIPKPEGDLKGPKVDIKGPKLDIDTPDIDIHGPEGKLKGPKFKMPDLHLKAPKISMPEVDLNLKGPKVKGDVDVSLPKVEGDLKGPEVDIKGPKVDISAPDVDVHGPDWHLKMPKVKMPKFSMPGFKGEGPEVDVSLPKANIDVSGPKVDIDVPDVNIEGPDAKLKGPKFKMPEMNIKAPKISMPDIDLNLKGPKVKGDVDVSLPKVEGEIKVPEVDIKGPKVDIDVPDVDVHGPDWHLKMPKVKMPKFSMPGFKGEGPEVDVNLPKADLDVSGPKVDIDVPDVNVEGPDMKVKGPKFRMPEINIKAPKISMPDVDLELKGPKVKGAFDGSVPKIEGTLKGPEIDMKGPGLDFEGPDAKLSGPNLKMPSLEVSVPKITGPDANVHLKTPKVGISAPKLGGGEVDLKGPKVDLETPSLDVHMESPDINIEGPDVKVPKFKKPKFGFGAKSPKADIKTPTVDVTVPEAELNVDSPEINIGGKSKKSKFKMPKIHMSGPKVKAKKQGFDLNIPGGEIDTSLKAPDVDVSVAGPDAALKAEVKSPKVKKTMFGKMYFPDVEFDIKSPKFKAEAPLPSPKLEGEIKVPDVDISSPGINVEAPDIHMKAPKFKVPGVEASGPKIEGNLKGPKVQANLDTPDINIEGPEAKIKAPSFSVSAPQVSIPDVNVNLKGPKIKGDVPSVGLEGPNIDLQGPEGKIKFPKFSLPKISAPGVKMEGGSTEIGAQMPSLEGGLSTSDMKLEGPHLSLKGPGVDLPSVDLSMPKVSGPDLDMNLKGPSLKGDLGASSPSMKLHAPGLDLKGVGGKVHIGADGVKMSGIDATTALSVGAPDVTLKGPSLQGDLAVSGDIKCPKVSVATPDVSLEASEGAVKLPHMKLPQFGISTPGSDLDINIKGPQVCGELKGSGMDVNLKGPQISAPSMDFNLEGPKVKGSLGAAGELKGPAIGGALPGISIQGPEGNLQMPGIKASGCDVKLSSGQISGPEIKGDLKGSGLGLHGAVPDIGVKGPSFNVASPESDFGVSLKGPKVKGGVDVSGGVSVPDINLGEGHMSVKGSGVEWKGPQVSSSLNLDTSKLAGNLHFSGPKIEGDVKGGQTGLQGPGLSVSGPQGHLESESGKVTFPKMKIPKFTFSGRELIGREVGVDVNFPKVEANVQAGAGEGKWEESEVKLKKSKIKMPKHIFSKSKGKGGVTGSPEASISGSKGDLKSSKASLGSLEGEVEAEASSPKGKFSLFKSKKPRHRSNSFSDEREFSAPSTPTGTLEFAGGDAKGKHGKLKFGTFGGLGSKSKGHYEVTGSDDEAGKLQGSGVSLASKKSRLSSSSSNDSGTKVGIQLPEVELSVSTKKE
UniProt P62715: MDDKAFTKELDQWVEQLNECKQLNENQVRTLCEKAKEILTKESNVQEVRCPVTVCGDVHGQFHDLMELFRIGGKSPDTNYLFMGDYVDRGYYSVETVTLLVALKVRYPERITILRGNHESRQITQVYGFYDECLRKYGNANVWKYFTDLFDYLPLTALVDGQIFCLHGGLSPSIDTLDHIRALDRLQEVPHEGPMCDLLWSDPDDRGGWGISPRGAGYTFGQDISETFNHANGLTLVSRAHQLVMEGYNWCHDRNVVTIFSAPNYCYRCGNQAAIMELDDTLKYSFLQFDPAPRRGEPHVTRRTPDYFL

Binding data for two substances are collected here from article PMC11909883.

This experiment has as its target T1, NLR family pyrin domain containing 4 (mouse NLRP4, Nlrp4e), 3xFLAG-tagged (mouse) (UniProt Q66X19).
T1 sequence: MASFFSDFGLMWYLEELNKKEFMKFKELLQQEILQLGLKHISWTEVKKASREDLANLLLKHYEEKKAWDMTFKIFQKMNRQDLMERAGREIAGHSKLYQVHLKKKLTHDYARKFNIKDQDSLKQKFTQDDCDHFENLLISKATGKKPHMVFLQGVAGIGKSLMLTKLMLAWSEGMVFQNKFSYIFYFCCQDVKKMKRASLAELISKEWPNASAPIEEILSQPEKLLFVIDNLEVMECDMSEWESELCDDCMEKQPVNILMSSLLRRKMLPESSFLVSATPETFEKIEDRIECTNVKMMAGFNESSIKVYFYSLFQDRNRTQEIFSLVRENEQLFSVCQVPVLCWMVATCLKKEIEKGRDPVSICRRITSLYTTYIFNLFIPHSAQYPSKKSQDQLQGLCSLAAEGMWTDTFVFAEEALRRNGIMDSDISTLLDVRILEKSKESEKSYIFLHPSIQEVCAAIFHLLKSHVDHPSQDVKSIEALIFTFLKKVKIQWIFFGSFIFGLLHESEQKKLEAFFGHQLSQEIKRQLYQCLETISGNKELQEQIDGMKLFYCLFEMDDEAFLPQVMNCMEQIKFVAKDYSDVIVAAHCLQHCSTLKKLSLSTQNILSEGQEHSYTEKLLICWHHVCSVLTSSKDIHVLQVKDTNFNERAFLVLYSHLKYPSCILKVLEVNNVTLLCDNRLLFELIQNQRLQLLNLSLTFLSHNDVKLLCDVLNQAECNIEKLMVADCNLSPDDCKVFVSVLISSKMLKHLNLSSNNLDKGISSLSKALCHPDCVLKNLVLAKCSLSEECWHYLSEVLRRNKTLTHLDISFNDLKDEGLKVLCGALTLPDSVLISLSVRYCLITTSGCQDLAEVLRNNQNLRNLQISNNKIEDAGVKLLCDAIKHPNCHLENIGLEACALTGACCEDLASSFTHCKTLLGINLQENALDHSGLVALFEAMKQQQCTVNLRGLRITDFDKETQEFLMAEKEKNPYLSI
Description: affinity purification with mass spectrometry; flag antibody incubated with 4 mg lysate of LLC OE cells overnight at 4 °C, Protein A/G magnetic beads, RIPA buffer, eluted in SDS loading buffer, SDS-PAGE, LC-MS/MS.

On to AHNAK (from UniProt E9Q616 1-5656), for which the binding result is “binds”.

As to “PPP2CB, beta isoform of the catalytic subunit of PP2A (from UniProt P62715 1-309) (enzyme)”, the binding entry is reported as “binds”.
